According to article PMC7060239:
Positions count from the first letter of the chain named. No constants are given. Whether binding was seen depends on the method and setting. For some of these results: In cells and extracts the contact can be indirect.

Protein sequences, listed by entry. Tags and fused reporters are not part of them. Lines headed by an entry give the natural chain unless they say otherwise; changes in a name come on top.
UniProt P13864: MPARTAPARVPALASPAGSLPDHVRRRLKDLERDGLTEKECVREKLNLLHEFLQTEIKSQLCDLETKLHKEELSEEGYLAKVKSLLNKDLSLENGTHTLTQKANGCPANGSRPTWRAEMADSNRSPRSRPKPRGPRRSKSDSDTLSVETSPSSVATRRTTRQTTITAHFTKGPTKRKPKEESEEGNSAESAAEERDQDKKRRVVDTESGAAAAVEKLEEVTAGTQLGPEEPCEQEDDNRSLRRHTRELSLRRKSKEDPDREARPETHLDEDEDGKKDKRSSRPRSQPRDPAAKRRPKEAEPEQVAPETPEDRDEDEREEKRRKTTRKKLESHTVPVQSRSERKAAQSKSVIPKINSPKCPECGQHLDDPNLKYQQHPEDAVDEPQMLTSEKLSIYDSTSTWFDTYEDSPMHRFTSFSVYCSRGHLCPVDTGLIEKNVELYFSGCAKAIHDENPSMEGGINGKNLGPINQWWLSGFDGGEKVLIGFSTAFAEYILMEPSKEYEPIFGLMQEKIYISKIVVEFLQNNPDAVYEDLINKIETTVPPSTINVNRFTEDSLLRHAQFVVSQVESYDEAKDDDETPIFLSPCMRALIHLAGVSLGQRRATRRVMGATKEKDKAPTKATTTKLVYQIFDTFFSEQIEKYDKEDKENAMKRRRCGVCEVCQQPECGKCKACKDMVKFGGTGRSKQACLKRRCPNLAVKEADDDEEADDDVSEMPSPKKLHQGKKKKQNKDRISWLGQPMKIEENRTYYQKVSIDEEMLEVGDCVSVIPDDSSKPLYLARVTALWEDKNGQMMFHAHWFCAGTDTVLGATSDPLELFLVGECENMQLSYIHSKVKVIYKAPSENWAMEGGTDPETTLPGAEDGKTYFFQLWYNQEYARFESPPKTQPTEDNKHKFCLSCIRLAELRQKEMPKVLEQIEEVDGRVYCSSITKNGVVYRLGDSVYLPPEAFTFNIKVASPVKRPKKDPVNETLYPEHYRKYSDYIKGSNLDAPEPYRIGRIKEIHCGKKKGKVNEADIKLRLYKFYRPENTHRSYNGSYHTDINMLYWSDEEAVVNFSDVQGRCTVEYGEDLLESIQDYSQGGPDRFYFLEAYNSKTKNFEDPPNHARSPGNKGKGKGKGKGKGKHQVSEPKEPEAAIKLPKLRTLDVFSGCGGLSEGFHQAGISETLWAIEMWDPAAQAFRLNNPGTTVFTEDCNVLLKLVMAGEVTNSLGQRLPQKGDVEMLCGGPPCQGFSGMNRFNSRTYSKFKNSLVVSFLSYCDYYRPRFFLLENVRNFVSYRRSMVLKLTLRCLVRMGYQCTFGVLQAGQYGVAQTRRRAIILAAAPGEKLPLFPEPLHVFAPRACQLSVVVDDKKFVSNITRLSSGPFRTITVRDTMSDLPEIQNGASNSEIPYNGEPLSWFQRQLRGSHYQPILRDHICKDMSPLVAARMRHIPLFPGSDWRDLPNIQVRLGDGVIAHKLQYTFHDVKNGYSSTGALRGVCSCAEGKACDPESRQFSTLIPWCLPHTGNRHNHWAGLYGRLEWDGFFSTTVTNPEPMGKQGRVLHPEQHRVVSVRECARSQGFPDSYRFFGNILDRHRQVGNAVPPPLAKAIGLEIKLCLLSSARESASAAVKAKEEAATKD
UniProt Q15004: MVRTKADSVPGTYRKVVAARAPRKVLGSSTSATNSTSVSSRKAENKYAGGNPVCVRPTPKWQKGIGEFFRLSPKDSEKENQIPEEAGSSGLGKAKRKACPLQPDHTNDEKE

Key:
[1] = biological target: T1, mPAF15 K15R/K24R (Paf15 KRKR mESCs) (mouse (endogenous in J1 mESCs)) (UniProt Q9CQX4); assay: co-IP; endogenous mPAF15 precipitated with anti-mPAF15 antibody (sc-390515) and protein G beads from nuclear extracts of WT and KRKR mESCs; immunoblot
T1 sequence: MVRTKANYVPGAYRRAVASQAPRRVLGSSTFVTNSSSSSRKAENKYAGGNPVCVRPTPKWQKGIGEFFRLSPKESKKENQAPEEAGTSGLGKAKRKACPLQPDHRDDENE

[2] = biological target: T2, PHD finger of human UHRF1 (residues 299–366) (human) (UniProt Q96T88); assay: ITC; hPHD and PAF15_(2-11) or H3 peptides; VP-ITC; 10 mM HEPES-NaOH (pH 7.5), 150 mM NaCl, 0.25 mM TCEP; one-site model; both purified
T2 sequence: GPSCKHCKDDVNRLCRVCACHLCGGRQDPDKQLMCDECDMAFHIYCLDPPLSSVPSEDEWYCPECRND

hPHD-D334A/D337A (human) = biological target: T3, hPHD-D334A/D337A (human) (UniProt Q96T88); assay: as above
T3 sequence: T2 sequence with D36A, D39A

binding [2] | other results | Substance
– | binding [1]: no binding | endogenous murine DNMT1 (from UniProt P13864 1-1620) (enzyme)
no binding | – | hPAF15_(2-11)-R3A peptide (from UniProt Q15004 2-11)
no binding | – | hPAF15_(2-11)-T4D peptide (from UniProt Q15004 2-11)
– | binding (hPHD-D334A/D337A (human)): no binding | human PAF15 (residues 2–11) peptide (from UniProt Q15004 2-11)
